These are yes or no findings as the source states them, for the method shown. A result given as binding can be weak or reduced; the word gives no strength.
Target: TaDOG1L1 (pGBKT7-TaDOG1L1) (wheat)
Assay: two-hybrid; MatchMaker Gold system, yeast AH109; pGADT7-TaPP2C-a5s co-transformed with pGBKT7-TaDOG1Ls or pGBKT7-TaSnRK2s; selected on DDO, examined on TDO and QDO with or without 10 μM ABA

Question: “TaPP2C-a5.1 (pGADT7-TaPP2C-a5.1) (from UniProt A0A3B6EGI9) (enzyme)” was tested. Which binding did it give?
Answer: The binding was “binds”.
